Laboratory results: the supplement of paper PMC4371806
Over roughly 2,300 compounds, “plate-normalized OD600 growth (mean of duplicates)” has its median near 0.29; the lowest 2% begin near 0.22. The list shows a part of the results.

System: Escherichia coli BW25113
Experiment: plate-normalized OD600 growth (mean of duplicates) (OD600 (normalized)); higher = more growth (less inhibition)
Conditions: 10 µM
Description: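 E. coli BW25113 in LB (100 µl, 96-well, no shaking) was exposed to 10 µM of each compound from a ~30,000-member library and grown at 37°C for 24 h or 15°C for 48 h, in duplicate. Growth was read as OD600 and the duplicate ODs were normalized across screening plates to correct plate-to-plate variation. Hits were >3σ below the mean OD600 at 15°C and <2σ below the mean at 37°C.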

| SMILES | plate-normalized OD600 growth (temperature: 15°C, 48 h) | plate-normalized OD600 growth (temperature: 37°C, 24 h) |
| --- | --- | --- |
| C=CCn1c(CSc2ccccc2[N+](=O)[O-])n[nH]c1=S | 0.26 | 0.606 |
| COC(=O)C1CC(=O)N(c2ccc(Br)cc2)C1 (stereo unspecified) | 0.244 | 0.616 |
| CC12CCC(C1)C(C)(C)C2NC(=O)c1cccs1 (stereo unspecified) | 0.26 | 0.639 |
| C=CCn1c(C(O)c2ccccc2)n[nH]c1=S (stereo unspecified) | 0.247 | 0.613 |
| CC(CCc1ccccc1)Nc1cc(N2CCN(S(C)(=O)=O)CC2)ccc1[N+](=O)[O-] (stereo unspecified) | 0.263 | 0.619 |
| Nc1nonc1N=NN(Cc1ccc(Cl)cc1)c1nonc1N | 0.25 | 0.616 |
| CCOc1ccc(N2C(=O)CC(N3CCN(C4CC(=O)N(c5ccc(OCC)cc5)C4=O)CC3)C2=O)cc1 (stereo unspecified) | 0.256 | 0.62 |
| Cc1cc(NC(=O)c2cc3n(n2)C(C(F)(F)F)CC(c2ccc(Br)cc2)N3)no1 (stereo unspecified) | 0.247 | 0.618 |
| CC(C)(C)N(NC(=O)OCc1ccccc1)C(=O)c1ccccc1 | 0.246 | 0.666 |
| O=C(O)c1cccc(-c2ccc(/C=N/NC(=O)c3ccncc3)o2)c1 | 0.247 | 0.64 |
| NC(=O)C1=C(O)C(=O)N(C2CCCCC2)C1 | 0.258 | 0.636 |
| C=CCSC1=C(C#N)C(c2ccccc2)CC(=O)N1 (stereo unspecified) | 0.244 | 0.621 |
| O=c1c2ccccc2nc(-c2ccccc2)n1Nc1cccc(Cl)c1 | 0.233 | 0.625 |
| O=C(CC1(O)C(=O)Cc2ccc(Br)cc21)c1ccc(F)cc1 (stereo unspecified) | 0.247 | 0.617 |
| Nc1sc(=S)n(-c2ccccc2)c1-c1nc2ccccc2s1 | 0.234 | 0.608 |
| O=C(Nc1cccnc1)Nc1csc(-c2ccc(C(F)(F)F)cc2)n1 | 0.22 | 0.615 |
| COc1ccc(C2C(C#N)=C(N)N(c3cccc(C)c3)C3=C2C(=O)CC(C)(C)C3)cc1OC (stereo unspecified) | 0.263 | 0.652 |
| O=C1CC(c2cccc([N+](=O)[O-])c2)CC2=C1C(c1ccc(Cl)cc1)N(C(=O)C(F)(F)F)c1ccccc1N2 (stereo unspecified) | 0.262 | 0.595 |
| Cc1ccc2[nH]c(=O)c(C=Nc3c(C)n(-c4ccccc4)n(-c4ccccc4)c3=O)c(O)c2c1 | 0.255 | 0.619 |
| CC1(C)C(=O)C2(CCCCC2)C(=O)OC1c1ccc(F)cc1 (stereo unspecified) | 0.234 | 0.611 |
| CCC(=O)OCCNc1ccc2noc3c2c1C(=O)c1ccccc1-3 | 0.232 | 0.633 |
| O=C(Nc1ccc(Cl)cc1Cl)c1cnccn1 | 0.245 | 0.607 |
| CCc1c(C)nc2[nH]nc(-c3ccccc3C)n2c1=O | 0.245 | 0.626 |
| COc1ccc(N2C(=O)CC(SC(N)=Nc3ccccc3)C2=O)cc1 (stereo unspecified) | 0.253 | 0.626 |
| CSCCC(NC(=O)c1ccccc1)C(=O)OCC(=O)Nc1ccccc1C#N (stereo unspecified) | 0.236 | 0.619 |

Two compounds picked at random from those above:

| SMILES | plate-normalized OD600 growth (temperature: 15°C, 48 h) | plate-normalized OD600 growth (temperature: 37°C, 24 h) |
| --- | --- | --- |
| Nc1nonc1N=NN(Cc1ccc(Cl)cc1)c1nonc1N | 0.25 | 0.616 |
| O=C(Nc1ccc(Cl)cc1Cl)c1cnccn1 | 0.245 | 0.607 |

(continued)

| SMILES | plate-normalized OD600 growth (temperature: 15°C, 48 h) | plate-normalized OD600 growth (temperature: 37°C, 24 h) |
| --- | --- | --- |
| Cc1ccc(S(=O)(=O)NCC(=O)NCC(N)=O)cc1 | 0.244 | 0.614 |
| CCCCCOc1ccc(NC(=O)c2cccnc2)cc1 | 0.251 | 0.615 |
| Cc1cccc(NC(=O)COc2ccccc2C(=O)NCCNc2ccc([N+](=O)[O-])cc2)c1 | 0.209 | 0.656 |
| O=[N+]([O-])c1ccc(C2=NN(c3ccccc3)C(c3ccco3)C2)cc1 (stereo unspecified) | 0.243 | 0.612 |
| COc1ccc(-n2c3c(c(=O)[nH]c2=O)C(NC(=O)c2ccncc2)(C(F)(F)F)C(=O)N3)cc1 (stereo unspecified) | 0.256 | 0.623 |
| Cc1oc(-c2ccccc2)cc1C(=O)N1CCN(c2ccc([N+](=O)[O-])cc2)CC1 | 0.265 | 0.667 |
| Cc1cccc(NCN2C(=O)CCC2=O)n1 | 0.256 | 0.622 |
| CCOc1c(/C=C2/SC(=Nc3ccccc3)N(Cc3ccccc3)C2=O)cccc1OC | 0.251 | 0.609 |
| COc1ccc(C2CC(=O)N2C2(C(=O)Nc3c(C)cccc3C)CCCCC2)cc1OC (stereo unspecified) | 0.24 | 0.605 |
| O=C(c1ccccc1)c1cc2c(cc1Br)OCCO2 | 0.246 | 0.645 |
| O=[N+]([O-])c1ccc(N2CCOCC2)cc1 | 0.254 | 0.65 |
| S=c1[nH]nc(SCCSc2n[nH]c(=S)s2)s1 | 0.257 | 0.616 |
| COc1ccc(-c2cc(C(F)(F)F)n3nc(C(=O)Nc4ccc(F)c(Cl)c4)c(Cl)c3n2)cc1 | 0.232 | 0.644 |
| O=C(Nc1ccccn1)NC(c1ccccc1Cl)P(=O)(Oc1ccccc1)Oc1ccccc1 (stereo unspecified) | 0.249 | 0.597 |
| C1CCN(CCC2CCCCN2)CC1 (stereo unspecified) | 0.247 | 0.614 |
| COc1ccc(-c2cc(C(F)(F)F)n3nc(C(=O)NC(C)(C)C)c(Cl)c3n2)cc1OC | 0.245 | 0.619 |
| COc1ccc2nc(C(=O)O)sc2c1 | 0.241 | 0.633 |
| N/C(=N/OC(=O)c1ccccc1)c1ccc(-c2csnn2)cc1 | 0.252 | 0.6 |
| CSc1nc(N)n(-c2ccccc2)n1 | 0.251 | 0.618 |
| CC(/C=N\O)=N/Nc1ccccc1 | 0.253 | 0.612 |
| CCOC(=O)c1c(Nc2ccccc2)sc([N+](=O)[O-])c1N | 0.268 | 0.634 |
| Cc1cc(C)nc(SCC(=O)NCC(C)NC(=O)CSc2nc(C)cc(C)n2)n1 (stereo unspecified) | 0.243 | 0.61 |
| CN1C(=O)N(C)C2(c3ccccc3)NN3C(=O)CSC3=NC12c1ccccc1 (stereo unspecified) | 0.242 | 0.59 |
| C=C1N(c2ccccc2)C(=O)OC1(C)C | 0.244 | 0.62 |
| COc1cc(C2Nc3cccc4cccc(c34)N2)cc(OC)c1OC | 0.233 | 0.636 |

One compound at a time (already shown). Values in the order: plate-normalized OD600 growth (temperature: 15°C, 48 h)	plate-normalized OD600 growth (temperature: 37°C, 24 h)
O=C(Nc1cccnc1)Nc1csc(-c2ccc(C(F)(F)F)cc2)n1 reads 0.22	0.615
CN1C(=O)N(C)C2(c3ccccc3)NN3C(=O)CSC3=NC12c1ccccc1 (stereo unspecified) reads 0.242	0.59
N/C(=N/OC(=O)c1ccccc1)c1ccc(-c2csnn2)cc1 reads 0.252	0.6
Cc1cc(NC(=O)c2cc3n(n2)C(C(F)(F)F)CC(c2ccc(Br)cc2)N3)no1 (stereo unspecified) reads 0.247	0.618

Next structures:

| SMILES | plate-normalized OD600 growth (temperature: 15°C, 48 h) | plate-normalized OD600 growth (temperature: 37°C, 24 h) |
| --- | --- | --- |
| O=C(O)C1c2ccccc2C(=O)N(Cc2ccc3c(c2)OCO3)C1c1cccnc1 (stereo unspecified) | 0.281 | 0.654 |
| NC(=S)CS(=O)(=O)c1ccc(C(F)(F)F)cc1 | 0.252 | 0.631 |
| Cc1oc(N=C/C=C/c2ccccc2)c(C#N)c1C | 0.256 | 0.644 |
| Cc1cc(C)c(I)c(C)c1 | 0.254 | 0.611 |
| Cc1ccc(NC(=O)c2ccc(Oc3ccc(C(=O)Nc4ccc(C)cc4C)cc3)cc2)c(C)c1 | 0.241 | 0.614 |
| CCOC(=O)c1c(N)oc2c(-c3ccc(C)c(Cl)c3)c3c(C(=O)OCC)c(N)oc3cc12 | 0.218 | 0.622 |
| COc1cc(CCNC(=O)OC(C)(C)C)c([S+]([O-])CSCc2ccccc2)cc1OC (stereo unspecified) | 0.238 | 0.613 |
| CCN(CC)c1ccc(/C=C(\C#N)c2nc3ccc(C)cc3[nH]2)cc1[N+](=O)[O-] | 0.255 | 0.62 |
| Cc1ccc2nsnc2c1S(=O)(=O)NCCC12CC3CC(CC(C3)C1)C2 | 0.24 | 0.621 |
| NC(=O)C1CCN(C(=O)c2ccco2)CC1 | 0.25 | 0.628 |
| O/N=C\c1sccc1Oc1ccccc1 | 0.254 | 0.635 |
| S=c1[nH]c2ccccc2o1 | 0.242 | 0.646 |
| O=S(=O)(c1cc(Br)c(Br)s1)N1CCCCC1 | 0.262 | 0.63 |
| CCN=C(NCC)SC1CC(=O)N(c2ccc(C(=O)O)cc2)C1=O (stereo unspecified) | 0.246 | 0.617 |
| OC(CNCCc1cccs1)COc1ccccc1 (stereo unspecified) | 0.251 | 0.641 |
| Cn1c2ccccc2c2nnc(SCC(=O)Nc3nccs3)nc21 | 0.256 | 0.638 |
| NC(=S)N/N=C\c1ccc(F)c(Cl)c1 | 0.282 | 0.62 |
| CCOc1ccc(C(C)(C)C(=O)Nc2ccc(C(=O)/C=C/c3ccco3)cc2)cc1 | 0.266 | 0.639 |
| COc1ccc(-c2c(C)oc3ccc(Cl)cc23)cc1 | 0.247 | 0.609 |
| COCc1cc(C)c2c(n1)sc1c2nc(C)n2c3ccccc3nc12 | 0.244 | 0.619 |
| Cc1ccc(C)c(-c2cc(N=Nc3ccccc3C)c(O)o2)c1 | 0.247 | 0.619 |
| COc1ccc(N2C(=O)c3ccc(Oc4cccc(N)c4)cc3C2=O)cc1 | 0.251 | 0.612 |
| Cn1c(=O)n(CC(=O)Nc2nn(-c3ccccc3)nc2C(N)=O)c2ccccc21 | 0.261 | 0.639 |
| Cc1noc(N)c1C(N)=S | 0.247 | 0.612 |
| Cc1ccc(-n2c(C)cc(/C=N/NC(=O)CN(Cc3ccccc3)S(=O)(=O)c3ccc(C)cc3)c2C)cc1 | 0.252 | 0.64 |

| SMILES | plate-normalized OD600 growth (temperature: 15°C, 48 h) | plate-normalized OD600 growth (temperature: 37°C, 24 h) |
| --- | --- | --- |
| COc1cccc(NC(=O)CSCc2ccc(Cl)cc2)c1 | 0.241 | 0.62 |
| COC(=O)CC1OC(=O)c2ccccc21 (stereo unspecified) | 0.243 | 0.631 |
| Cc1cc(C)c2nc3s/c(=C\c4ccccc4C(F)(F)F)c(=O)n3c2c1 | 0.249 | 0.593 |
| O=C(O)c1cccc(-c2ccc(/C=c3/sc4nc(-c5ccccc5)c(-c5ccccc5)n4c3=O)o2)c1 | 0.259 | 0.641 |
| O=C(O)c1nccnc1C(=O)O | 0.242 | 0.622 |
| CCNc1nc(Cl)nc(NCCNC(=O)COc2ccc(Cl)cc2Cl)n1 | 0.247 | 0.598 |
| CSc1ccc(C(=O)O)s1 | 0.249 | 0.646 |
| CC(C)(C)c1nccc(-c2nn(-c3ccc(F)cc3)ccc2=O)n1 | 0.271 | 0.618 |
| O=c1cc(N2CCCC2)c2ccccc2o1 | 0.237 | 0.618 |
| O=C(N/N=C/c1ccc(OC(=O)c2cccc(F)c2)cc1)C1=NNC(c2ccccc2)(c2ccccc2)C1 | 0.267 | 0.624 |
| O=C1CCCc2c1c1ccccc1n2Cc1ccccc1 | 0.284 | 0.637 |
| O=[N+]([O-])c1cc(Cl)cc(/C=N/NC(=Nc2ccccc2)c2ccccn2)c1O | 0.22 | 0.625 |
| N/C(=N\OC(=O)c1ccccc1F)c1nonc1N | 0.26 | 0.619 |
| CCOc1ccc(Nc2nnc(-c3ccncc3)s2)cc1 | 0.257 | 0.626 |
| Cc1ccc(N=Cc2ccc(Sc3nc4ccccc4s3)o2)cc1 | 0.245 | 0.625 |
| CCOC(=O)c1[nH]c(=O)[nH]c1CSc1ccccn1 | 0.245 | 0.621 |
| FC(F)(F)c1ccnc(-n2ccc(-c3cccs3)n2)n1 | 0.277 | 0.637 |
| O=c1occ(CO)c(O)c1CN1CCCCC1 | 0.259 | 0.621 |
| COC(=O)C1=C(C(=O)OC)SC(=CC(=S)c2ccccc2)S1 | 0.251 | 0.616 |
| Cc1ccc(-n2cnnn2)cc1N | 0.26 | 0.626 |
| COc1ccc(C(=O)N2CCN(c3c(C)cccc3C)CC2)cc1OC | 0.257 | 0.622 |
| Cc1ccc(OCC(=O)NN)c2c1CCC2 | 0.245 | 0.605 |
| Clc1ccc2nc(N3CCOCC3)nc(-c3ccccc3)c2c1 | 0.251 | 0.61 |
